For some of these results: A negative result means that nothing was seen under these conditions.
Assays:
VEGF165 (Homo sapiens) [1] = assay: filter binding; conditions: 2'-F pyrimidines, 2'-OH purines, 3'-3' dT cap [21 (3'-3' dT cap); 2'-F pyrimidines 2,11,12,18,20]; 37 C; purified recombinant protein; letters built from the parent sequence and the stated change; variant of VP30.22
[2] = system: VEGF165 reduced with DTT (Homo sapiens); assay: filter binding; conditions: 2'-F pyrimidines, 2'-OMe purines except two 2'-OH purines, VEGF165 reduced with DTT, purified recombinant protein, protein details: R&D Systems, Sf21, DTT-reduced before incubation
VEGF165 (Homo sapiens) [3] = assay: activity assay; conditions: 2'-F pyrimidines, 2'-OMe/2'-OH purines, 3'-3' dT, Miles assay guinea pig, VEGF isoform not stated, purified recombinant protein, variant of t44OMe

Chains of the proteins cited; added tags and fusions are not shown. Chains listed by the source or under a name are the forms on record and can include a tag or linker.
VEGF165 (Homo sapiens), one chain, as listed by the source: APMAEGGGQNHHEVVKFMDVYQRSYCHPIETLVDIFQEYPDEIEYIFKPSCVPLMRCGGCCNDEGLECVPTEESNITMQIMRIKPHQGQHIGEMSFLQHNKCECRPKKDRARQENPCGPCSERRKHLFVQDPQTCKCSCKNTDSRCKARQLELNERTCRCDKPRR

Sequence: GUAGGAAGAAUUGGAAGCGCT [t22f]
- Kd (VEGF165 (Homo sapiens) [1]): > 100 nM

Sequence: CGGAAUCAGUGAAUGCUUAUACAUCCG [t44OMe]
- binding result ([2]; variant of t44a): no binding

Sequence: GCGGUAGGAAGAAUUGGAAGCGC [t22OMe]
- binding result ([2]; variant of t22c): no binding

Sequence: CGGAAUCAGUGAAUGCUUAUACAUCCGT [NX31838-PL (liposomal)]
- functional effect of the aptamer (VEGF165 (Homo sapiens) [3]; phospholipid (C-18), liposomal, reduced blocking at 100 nM): active

Sequence: CGGAAUCAGUGAAUGCUUAUACAUCCGT [NX31838-20K PEG]
- functional effect of the aptamer (VEGF165 (Homo sapiens) [3]; 5' 20K mPEG via aminolinker, blocks VEGF vascular leakage down to 100 nM, lost at 30 nM): active

Sequence: GCGAACCGAUGGAAUUUUUGGACGCUCGC [t2OMe]
- binding result ([2]; variant of t2a): no binding

Sequence: CGGAAUCAGUGAAUGCUUAUACAUCCGT [NX31838-40K PEG]
- functional effect of the aptamer (VEGF165 (Homo sapiens) [3]; 5' 40K mPEG via aminolinker, blocks VEGF vascular leakage down to 100 nM, lost at 30 nM): active
